System: isolated mitochondria (RLM)
Test: Uptake by isolated mitochondria measured with TPP-selective electrode
Parameters: species or system rat

Question: With `Nc1ccc(OCCCCCC[P+](c2ccccc2)(c2ccccc2)c2ccccc2)cc1N` [MitoG, (6-(3,4-Diaminophenoxy)hexyl)triphenylphosphonium chloride] as the molecule, how does the “membrane potential-dependent uptake into mitochondria” value (RLM 1 mg protein/ml, succinate, 37° C.) read?
Answer: ~2 nmol/mg protein

Question: And the concentration within mitochondria (assuming matrix volume 0.5 μl/mg protein, external concentration ~2 μM)?
Answer: ~4 mM

Question: What about the accumulation within mitochondria (matrix versus external concentration) of the same molecule?
Answer: ~2000 fold
